Assay results as given in doi:10.1101/481754.
These are yes or no findings as the source states them, for the method shown. In cells and extracts the contact can be indirect. A yes stands for co-enrichment or nearness to the bait. Other partners may have been found.

Protein sequences, listed by entry. Tags and fused reporters are not part of them.
UniProt O43399: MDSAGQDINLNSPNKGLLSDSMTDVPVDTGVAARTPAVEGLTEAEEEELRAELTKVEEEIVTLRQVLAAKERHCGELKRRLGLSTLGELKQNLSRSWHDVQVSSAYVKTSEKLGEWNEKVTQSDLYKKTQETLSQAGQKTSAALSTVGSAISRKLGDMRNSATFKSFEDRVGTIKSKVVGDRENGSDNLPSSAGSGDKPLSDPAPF
UniProt P61019: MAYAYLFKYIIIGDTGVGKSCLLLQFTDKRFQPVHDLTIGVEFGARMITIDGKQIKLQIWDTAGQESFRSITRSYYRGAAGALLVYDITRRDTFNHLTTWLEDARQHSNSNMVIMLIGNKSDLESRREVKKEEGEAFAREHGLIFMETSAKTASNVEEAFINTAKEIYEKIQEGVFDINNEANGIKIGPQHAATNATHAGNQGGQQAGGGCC
UniProt P51148: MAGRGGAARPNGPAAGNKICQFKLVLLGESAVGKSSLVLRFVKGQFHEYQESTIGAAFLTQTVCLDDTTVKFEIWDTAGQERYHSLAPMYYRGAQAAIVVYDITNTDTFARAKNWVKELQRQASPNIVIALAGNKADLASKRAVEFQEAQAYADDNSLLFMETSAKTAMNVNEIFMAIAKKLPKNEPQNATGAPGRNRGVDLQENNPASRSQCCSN

B1: TPD52 (Tumor Protein D52) (protein, UniProt P55327 1-224)
chain: MDCREMDLYEDYQSPFDFDAGVNKSYLYLSPSGNSSPPGSPTLQKFGLLRTDPVPEEGEDVAATISATETLSEEEQEELRRELAKVEEEIQTLSQVLAAKEKHLAEIKRKLGINSLQELKQNIAKGWQDVTATSAYKKTSETLSQAGQKASAAFSSVGSVITKKLEDVKNSPTFKSFEEKVENLKSKVGGTKPAGGDFGEVLNSAANASATTTEPLPEKTQESL
B2: TPD53 (protein, UniProt Q16890 1-204)
chain: MEAQAQGLLETEPLQGTDEDAVASADFSSMLSEEEKEELKAELVQLEDEITTLRQVLSAKERHLVEIKQKLGMNLMNELKQNFSKSWHDMQTTTAYKKTHETLSHAGQKATAAFSNVGTAISKKFGDMSYSIRHSISMPAMRNSPTFKSFEERVETTVTSLKTKVGGTNPNGGSFEEVLSSTAHASAQSLAGGSRRTKEEELQC

Molecular target: GFP-TPD54 (Tumor Protein D54) (human) (UniProt O43399)
Assay: affinity purification with mass spectrometry

| binding | Molecule |
| --- | --- |
| binds | Rab2a (from UniProt P61019 1-212) |
| binds | Rab5c (from UniProt P51148 1-216) |
| binds | B1 |
| binds | B2 |
